Data from PMC12136000.
These are yes or no findings as the source states them, for the method shown. Binding seen in cells or lysates may run through a third protein. Some entries that bind do so weakly or less than the wild type.

By UniProt entry, the sequences of proteins in these tests, tags left out.
UniProt O15371: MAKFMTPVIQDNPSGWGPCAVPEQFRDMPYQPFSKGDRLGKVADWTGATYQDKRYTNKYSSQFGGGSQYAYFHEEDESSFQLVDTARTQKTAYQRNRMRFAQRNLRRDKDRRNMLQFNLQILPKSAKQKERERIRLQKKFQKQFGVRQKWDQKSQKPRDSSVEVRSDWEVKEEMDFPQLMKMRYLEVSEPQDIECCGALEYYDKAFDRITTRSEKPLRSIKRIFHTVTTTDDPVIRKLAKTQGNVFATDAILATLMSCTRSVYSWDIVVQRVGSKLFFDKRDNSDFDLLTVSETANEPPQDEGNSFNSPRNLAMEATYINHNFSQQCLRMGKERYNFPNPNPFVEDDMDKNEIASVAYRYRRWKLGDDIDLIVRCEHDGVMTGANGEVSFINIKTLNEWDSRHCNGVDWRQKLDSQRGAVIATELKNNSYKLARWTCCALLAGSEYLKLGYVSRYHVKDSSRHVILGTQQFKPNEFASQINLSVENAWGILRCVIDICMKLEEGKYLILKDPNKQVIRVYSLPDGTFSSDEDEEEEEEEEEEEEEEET
UniProt Q9Y262: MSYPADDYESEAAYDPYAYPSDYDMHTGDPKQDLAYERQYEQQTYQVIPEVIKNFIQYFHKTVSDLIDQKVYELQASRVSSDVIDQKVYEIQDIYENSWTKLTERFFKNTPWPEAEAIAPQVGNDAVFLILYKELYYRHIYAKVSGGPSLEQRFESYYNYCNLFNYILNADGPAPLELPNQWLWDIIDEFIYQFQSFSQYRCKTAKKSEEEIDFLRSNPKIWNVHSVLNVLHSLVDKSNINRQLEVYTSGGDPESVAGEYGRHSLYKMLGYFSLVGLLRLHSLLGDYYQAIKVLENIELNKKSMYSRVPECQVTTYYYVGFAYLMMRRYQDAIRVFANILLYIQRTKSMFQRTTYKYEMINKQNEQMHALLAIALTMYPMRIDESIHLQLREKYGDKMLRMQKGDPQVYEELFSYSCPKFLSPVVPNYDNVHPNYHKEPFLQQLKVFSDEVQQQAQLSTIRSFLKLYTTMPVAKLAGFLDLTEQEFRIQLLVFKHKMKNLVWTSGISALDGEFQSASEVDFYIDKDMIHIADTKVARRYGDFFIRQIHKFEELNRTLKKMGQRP
UniProt Q04637: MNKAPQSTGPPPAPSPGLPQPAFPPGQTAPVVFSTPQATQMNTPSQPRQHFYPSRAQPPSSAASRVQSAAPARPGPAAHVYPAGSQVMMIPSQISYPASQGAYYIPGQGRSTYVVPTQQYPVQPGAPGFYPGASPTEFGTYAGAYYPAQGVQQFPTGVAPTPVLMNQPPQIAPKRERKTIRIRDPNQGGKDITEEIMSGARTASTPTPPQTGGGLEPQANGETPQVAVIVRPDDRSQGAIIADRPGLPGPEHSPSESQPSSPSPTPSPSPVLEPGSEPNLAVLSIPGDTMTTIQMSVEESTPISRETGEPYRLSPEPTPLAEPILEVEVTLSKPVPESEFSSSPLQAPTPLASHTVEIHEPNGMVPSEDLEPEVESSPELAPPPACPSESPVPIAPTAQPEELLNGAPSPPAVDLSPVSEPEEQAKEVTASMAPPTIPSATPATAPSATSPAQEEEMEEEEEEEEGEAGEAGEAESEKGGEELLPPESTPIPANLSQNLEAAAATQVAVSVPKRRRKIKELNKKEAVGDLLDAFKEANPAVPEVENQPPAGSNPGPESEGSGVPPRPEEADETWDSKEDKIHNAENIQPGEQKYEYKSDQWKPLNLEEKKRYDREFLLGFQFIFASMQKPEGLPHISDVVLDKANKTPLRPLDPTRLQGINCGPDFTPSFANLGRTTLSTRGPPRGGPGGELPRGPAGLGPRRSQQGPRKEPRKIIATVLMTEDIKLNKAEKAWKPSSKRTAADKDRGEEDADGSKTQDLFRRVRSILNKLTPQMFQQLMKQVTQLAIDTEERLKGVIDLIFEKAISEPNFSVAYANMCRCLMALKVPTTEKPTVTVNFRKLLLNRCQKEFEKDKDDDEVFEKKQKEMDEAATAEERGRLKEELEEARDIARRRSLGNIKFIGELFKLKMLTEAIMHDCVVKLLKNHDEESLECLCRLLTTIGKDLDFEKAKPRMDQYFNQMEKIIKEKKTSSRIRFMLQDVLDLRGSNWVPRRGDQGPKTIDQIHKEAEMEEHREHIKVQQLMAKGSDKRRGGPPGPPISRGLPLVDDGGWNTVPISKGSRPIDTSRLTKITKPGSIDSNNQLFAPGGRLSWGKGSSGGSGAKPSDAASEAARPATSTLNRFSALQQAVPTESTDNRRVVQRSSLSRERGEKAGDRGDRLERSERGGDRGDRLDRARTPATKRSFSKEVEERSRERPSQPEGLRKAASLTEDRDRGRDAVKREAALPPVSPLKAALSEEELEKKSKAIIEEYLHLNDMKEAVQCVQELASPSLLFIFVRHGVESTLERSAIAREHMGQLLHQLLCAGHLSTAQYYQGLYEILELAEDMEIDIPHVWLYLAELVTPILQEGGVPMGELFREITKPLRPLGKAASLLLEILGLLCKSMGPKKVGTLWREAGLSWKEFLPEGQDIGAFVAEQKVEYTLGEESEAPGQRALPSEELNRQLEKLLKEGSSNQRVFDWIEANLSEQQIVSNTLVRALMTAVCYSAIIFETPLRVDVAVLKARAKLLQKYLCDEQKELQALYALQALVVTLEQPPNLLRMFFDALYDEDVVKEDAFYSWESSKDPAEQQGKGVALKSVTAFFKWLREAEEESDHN
UniProt P55884: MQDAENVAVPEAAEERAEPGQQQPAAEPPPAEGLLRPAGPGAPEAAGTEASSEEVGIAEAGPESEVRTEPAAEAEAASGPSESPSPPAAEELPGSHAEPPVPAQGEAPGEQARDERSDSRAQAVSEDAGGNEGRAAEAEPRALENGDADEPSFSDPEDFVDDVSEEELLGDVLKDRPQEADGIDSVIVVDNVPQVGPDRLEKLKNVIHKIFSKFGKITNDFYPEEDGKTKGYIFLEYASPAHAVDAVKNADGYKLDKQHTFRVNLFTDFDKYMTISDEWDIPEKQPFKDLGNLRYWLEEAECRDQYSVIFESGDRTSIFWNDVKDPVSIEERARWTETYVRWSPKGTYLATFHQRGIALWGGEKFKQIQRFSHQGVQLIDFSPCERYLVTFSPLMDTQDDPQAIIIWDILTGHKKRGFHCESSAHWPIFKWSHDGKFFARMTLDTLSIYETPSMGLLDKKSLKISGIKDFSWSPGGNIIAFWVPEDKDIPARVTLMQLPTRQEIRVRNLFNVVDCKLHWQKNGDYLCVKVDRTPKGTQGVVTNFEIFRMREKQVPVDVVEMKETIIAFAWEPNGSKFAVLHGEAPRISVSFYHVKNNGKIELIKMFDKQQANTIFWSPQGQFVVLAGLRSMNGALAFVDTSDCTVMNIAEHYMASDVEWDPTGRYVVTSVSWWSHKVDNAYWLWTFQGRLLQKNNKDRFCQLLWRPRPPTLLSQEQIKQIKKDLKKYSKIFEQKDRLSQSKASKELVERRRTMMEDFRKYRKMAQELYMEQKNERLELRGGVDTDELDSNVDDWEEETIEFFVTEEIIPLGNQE

The substances below were run against FLAG-tagged eIF3d (wild-type eIF3D-FLAG) (UniProt O15371) (assay: co-IP; HeLa lysate (50 mM Tris pH7.5, 150 mM NaCl, 1% Triton-X, Benzonase) on anti-flag-beads for 2 h at 4 °C, three washes, western blot; cells treated for 2 h with DMSO or with 3 µM of the CK2 inhibitor CX-5011 before lysis).

binding, binds:
eIF3l (from UniProt Q9Y262 1-564)
eIF4G1 (from UniProt Q04637 1-1599)
eIF3b (from UniProt P55884 1-814)
